This experiment deals with T1, Cycle checkpoint kinase 1 (CHK1), endogenous (human (endogenous in BxPC-3)) (UniProt O14757).
T1 sequence: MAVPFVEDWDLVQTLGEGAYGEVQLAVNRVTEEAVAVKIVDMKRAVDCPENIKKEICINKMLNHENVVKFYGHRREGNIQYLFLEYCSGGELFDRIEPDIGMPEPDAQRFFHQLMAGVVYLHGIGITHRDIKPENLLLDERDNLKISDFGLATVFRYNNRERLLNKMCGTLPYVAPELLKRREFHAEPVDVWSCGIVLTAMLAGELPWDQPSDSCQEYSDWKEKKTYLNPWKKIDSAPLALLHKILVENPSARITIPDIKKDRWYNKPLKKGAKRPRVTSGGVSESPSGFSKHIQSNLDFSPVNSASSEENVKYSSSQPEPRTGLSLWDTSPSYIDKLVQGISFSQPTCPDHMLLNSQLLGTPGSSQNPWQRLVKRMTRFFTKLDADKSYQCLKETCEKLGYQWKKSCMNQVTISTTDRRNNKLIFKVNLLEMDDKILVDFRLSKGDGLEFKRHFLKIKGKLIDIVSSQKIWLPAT
The experiment in a line: co-IP; BxPC-3 cells treated with control vectors or Flag-FHL1 vectors; IP by anti-CHK1 or IgG, Western blot. (Immunoblotting shows a protein as a band on a membrane.)

The record followed here is article PMC10547647.

No constants are given. Whether binding was seen depends on the method and setting. In cells and extracts the contact can be indirect. Some results given as binding are weak or reduced against the parent protein; the word gives no strength.

B1: Cell division cycle 25A (CDC25A), endogenous (protein, UniProt P30304 1-524)
chain: MELGPEPPHRRRLLFACSPPPASQPVVKALFGASAAGGLSPVTNLTVTMDQLQGLGSDYEQPLEVKNNSNLQRMGSSESTDSGFCLDSPGPLDSKENLENPMRRIHSLPQKLLGCSPALKRSHSDSLDHDIFQLIDPDENKENEAFEFKKPVRPVSRGCLHSHGLQEGKDLFTQRQNSAPARMLSSNERDSSEPGNFIPLFTPQSPVTATLSDEDDGFVDLLDGENLKNEEETPSCMASLWTAPLVMRTTNLDNRCKLFDSPSLCSSSTRSVLKRPERSQEESPPGSTKRRKSMSGASPKESTNPEKAHETLHQSLSLASSPKGTIENILDNDPRDLIGDFSKGYLFHTVAGKHQDLKYISPEIMASVLNGKFANLIKEFVIIDCRYPYEYEGGHIKGAVNLHMEEEVEDFLLKKPIVPTDGKRVIVVFHCEFSSERGPRMCRYVRERDRLGNEYPKLHYPELYVLKGGYKEFFMKCQSYCEPPSYRPMHHEDFKEDLKKFRTKSRTWAGEKSKREMYSRLKKL
As to B1, the binding result is “binds”.
